Data as given in PubChem BioAssay AID504774 (Drosophila RNAi Screening Center, 2011).
Purpose: 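Fly genes whose loss alters survival after alkylation damage to DNA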 (primary screen). System: Drosophila Kc167 cells. Reagents: long dsRNA against Drosophila genes, about 0.25 µg dsRNA per well. Timing: about 6 days: 3 days knock-down, then 3 days with or without MMS. Challenge: methyl methanesulphonate 0.004% (w/v) for 3 days after knock-down. Read-out: 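Viability in wells given MMS, read as ATP luminescence, normalised by quantiles plate by plate and averaged across replicates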. Scale: mean viability with MMS and viability with MMS: higher = more surviving cells after MMS.
The deposit covers about 23,000 reagents; this is a random part of those with a known target gene and a result. 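Values are quantile-normalised luminescence on an arbitrary scale; higher means more cells surviving MMS.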 The numbers tell different reagents against one gene apart. A plus sign joins genes that one reagent is predicted to hit.

| gene | dsRNA no. | mean viability with MMS | viability with MMS, replicate 1 | viability with MMS, replicate 2 |
| --- | --- | --- | --- | --- |
| alrm (astrocytic leucine-rich repeat molecule) | 1 | 3.20e6 | 3.68e6 | 3.64e6 |
| MTA1-like (Metastasis associated 1-like) | 1 | 3.38e6 | 3.84e6 | 3.85e6 |
| MTA1-like (Metastasis associated 1-like) | 2 | 3.55e6 | 4.06e6 | 3.98e6 |
| Yeti | 1 | 3.21e6 | 3.61e6 | 3.69e6 |
| Scox (Synthesis of cytochrome c oxidase) | 1 | 3.39e6 | 3.77e6 | 3.86e6 |
| Hr39 (Hormone receptor-like in 39) | 1 | 3.54e6 | 4.15e6 | 4.05e6 |
| robl62A | 1 | 3.56e6 | 4.08e6 | 3.99e6 |
| Or98P (Odorant receptor 98a pseudogene) | 1 | 3.61e6 | 3.99e6 | 4.16e6 |
| CG34029 | 1 | 3.52e6 | 3.98e6 | 4.01e6 |
| CG15370 | 1 | 3.54e6 | 4.05e6 | 3.97e6 |
| CG15370 | 2 | 3.49e6 | 3.89e6 | 4.06e6 |
| UQCR-C1 (Ubiquinol-cytochrome c reductase core protein 1) | 1 | 3.67e6 | 4.05e6 | 4.30e6 |
| yem (yemanuclein) | 1 | 3.55e6 | 3.85e6 | 4.19e6 |
| yem (yemanuclein) | 2 | 3.40e6 | 3.83e6 | 3.83e6 |
| lncRNA:CR42862 + CG33229 | 1 | 3.53e6 | 3.99e6 | 4.02e6 |
| CG7488 | 1 | 3.44e6 | 3.95e6 | 3.83e6 |
| ATPsynB (ATP synthase, subunit B) | 1 | 3.33e6 | 3.77e6 | 3.83e6 |
| CG13884 | 1 | 3.41e6 | 3.88e6 | 3.86e6 |
| Cht8 (Chitinase 8) | 1 | 3.34e6 | 3.81e6 | 3.71e6 |
| ase (asense) | 1 | 3.37e6 | 3.75e6 | 3.92e6 |
| Plp (Pericentrin-like protein) | 1 | 3.42e6 | 3.89e6 | 3.82e6 |
| Plp (Pericentrin-like protein) | 2 | 3.45e6 | 3.93e6 | 3.85e6 |
| Plp (Pericentrin-like protein) | 3 | 3.64e6 | 4.15e6 | 4.07e6 |
| CG18661 | 1 | 3.52e6 | 3.77e6 | 4.23e6 |
| CG13738 | 1 | 3.25e6 | 3.62e6 | 3.68e6 |
| cyst (cysts) | 1 | 3.56e6 | 3.99e6 | 4.11e6 |
| CG7646 | 1 | 3.49e6 | 3.94e6 | 3.95e6 |
| CG33127 | 1 | 3.68e6 | 4.27e6 | 4.06e6 |
| plum | 1 | 3.54e6 | 4.00e6 | 4.05e6 |
| Rtel1 (Regulator of telomere elongation helicase 1) | 1 | 3.53e6 | 4.20e6 | 3.82e6 |
| CG1418 | 1 | 3.45e6 | 3.95e6 | 3.90e6 |
| Buffy | 1 | 3.59e6 | 4.05e6 | 4.11e6 |
| KLHL18 (Kelch like family member 18) | 1 | 3.55e6 | 4.14e6 | 3.91e6 |
| CG10738 | 1 | 3.46e6 | 3.88e6 | 3.97e6 |
| Shawl (Shaw-like) | 1 | 3.55e6 | 4.09e6 | 3.96e6 |
| Shawl (Shaw-like) | 2 | 3.70e6 | 4.35e6 | 4.04e6 |
| CG15695 | 1 | 3.60e6 | 4.11e6 | 4.05e6 |
| CG8420 | 1 | 3.42e6 | 3.86e6 | 3.93e6 |
| CG5033 | 1 | 3.50e6 | 3.88e6 | 4.04e6 |
| ppk20 (pickpocket 20) | 1 | 4.12e6 | 5.10e6 | 4.63e6 |
| CG10469 | 1 | 3.58e6 | 4.02e6 | 4.13e6 |
| Neu2 (Neuroectoderm-expressed 2) | 1 | 3.69e6 | 4.14e6 | 4.15e6 |
| PpD5 (Protein phosphatase D5) | 1 | 3.43e6 | 3.79e6 | 3.94e6 |
| PpD5 (Protein phosphatase D5) | 2 | 3.54e6 | 4.12e6 | 3.95e6 |
| lin (lines) | 1 | 3.59e6 | 4.08e6 | 4.03e6 |
| CG14929 + CG4970 | 1 | 3.49e6 | 3.99e6 | 3.94e6 |
| CG14929 + CG4970 | 2 | 3.36e6 | 3.96e6 | 3.61e6 |
| tRNA:Leu-CAA-2-3 (transfer RNA:Leucine-CAA 2-3) | 1 | 3.71e6 | 4.18e6 | 4.18e6 |
| Acp1 (Adult cuticle protein 1) | 1 | 3.60e6 | 4.36e6 | 3.80e6 |
| Pp1-Y1 (Protein phosphatase 1, Y-linked 1) | 1 | 2.18e6 | 3.78e6 | 3.87e6 |
| CG3323 | 1 | 3.46e6 | 4.02e6 | 3.84e6 |
| CG13121 (retired record) | 1 | 3.62e6 | 4.15e6 | 4.06e6 |
| CG31345 | 1 | 3.41e6 | 3.88e6 | 3.89e6 |
| CG31345 | 2 | 3.36e6 | 3.81e6 | 3.88e6 |
| CG9485 | 1 | 3.46e6 | 3.52e6 | 4.13e6 |
| CG31145 | 1 | 3.55e6 | 3.92e6 | 4.14e6 |
| CG31145 | 2 | 3.34e6 | 3.75e6 | 3.75e6 |
| CG31145 | 3 | 3.00e6 | 3.62e6 | 3.62e6 |
| CG31145 | 4 | 3.38e6 | 3.83e6 | 3.75e6 |
| Gem4b + Gem4c + Glos | 1 | 3.65e6 | 4.08e6 | 4.19e6 |
| RN-tre (Related to the N terminus of tre oncogene) | 1 | 3.67e6 | 4.11e6 | 3.99e6 |
| CG3815 | 1 | 3.48e6 | 3.95e6 | 3.83e6 |
| CG30334 | 1 | 3.49e6 | 3.88e6 | 4.07e6 |
| CG17883 | 1 | 3.55e6 | 4.05e6 | 3.97e6 |
| Rab9Db + Rab9D + Rab9E | 1 | 3.54e6 | 4.06e6 | 3.97e6 |
| CG7131 | 1 | 3.75e6 | 4.28e6 | 4.14e6 |
| Ip6k (Inositol hexakisphosphate kinase) | 1 | 3.45e6 | 3.96e6 | 3.95e6 |
| CG15824 | 1 | 3.60e6 | 4.05e6 | 4.13e6 |
